Columns and labels:
[1] = tested on: (IL-6 plus IL-6sR)-induced arthritic pain in rat; assay: IL6 Rat: dose response alleviation of (IL-6 plus IL-6sR)-induced arthritic pain (Method Example 1); format: in vivo; conditions: oral dose of 10 mg/kg or greater (1, 3, 10, 30 mg/kg tested) 1 hour before 100 ng hrIL-6 + 300 ng hrIL-6sR; measured 1 hour post injection
Procedure: (§1) It should be appreciated that in all of the below examples, unless indicated otherwise, male Wistar rats (175-200 g) were housed in solid bottom isolator cages, 2-4 rats per cage, with corncob bedding on a 12 hour:12 hour light:dark cycle. Animals were fed standard rat chow with water available ad libitum.
(§2) It should be appreciated that in all of the below examples, hind paw weight bearing differentials between the paw of the limb having the control joint (in animals administered test compound vehicle only) and the paw of the limb having the contralateral test joint (in control or inducement animals administered test compound vehicle only and in treatment animals administered test compound dissolved in test compound vehicle) were determined using an incapacitance tester, model 2KG (Linton Instrumentation, Norfolk, United Kingdom). […] Each data point is the mean of three readings of 5 seconds duration. The hind paw weight bearing differentials were expressed in grams and calculated as the [sum of (the weight in grams placed on the control limb minus the weight in grams placed on the contralateral test limb for each animal in the inducement or treatment animal group)] divided by the number of animals in the inducement or treatment animal group. […]

[2] = tested on: (IL-6 plus IL-6sR)-induced arthritic pain in rat; assay: IL6 Rat: time course of alleviation of (IL-6 plus IL-6sR)-induced arthritic pain (Method Example 2); format: in vivo; conditions: 10 mg/kg oral 1 hour before 100 ng hrIL-6 + 300 ng hrIL-6sR
Procedure: as §1, §2

`COc1ccc2cc([C@H](C)C(=O)O)ccc2c1` [naproxen] was tested, and the “percent inhibition of a change in hind paw weight distribution, compared to test compound vehicle alone” value [1] was “inhibit pain in a statistically significant manner”, the “change in hind paw weight distribution (pain) compared to test compound vehicle alone” value ([2]; Time 1 and 3 hours post injection) was “reduced pain in a statistically significant manner” and the “change in hind paw weight distribution (pain) compared to test compound vehicle alone” value ([2]; Time 6 hours post injection) was “reduced pain in a statistically significant manner”.

Reference: patent US20040241092A1, “Method for determining alleviation of pain in an animal” (priority 2003, published 2004)
